Some of the results follow. Shown are side measurements of this screen, not its main read-out; they come without a call. Compounds called inactive in the main read-out are mostly missing here. Potencies come from curve fits of mixed quality, noted in brackets.
Test: qHTS Assay for Lipid Storage Modulators in Drosophila S3 Cells;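 as to cell number change: cells counted by Cell Tracker Red CMTPX staining in the red channel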
Conditions: BODIPY lipid droplet fluorescence, 18-24 h; for cell number change: measured here: cell count max response, cells fed with added oleic acid
Summary of the method: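 Laser-scanning cytometry quantifies lipid droplet accumulation (500–530 nm total intensity; droplet/cell object ratio) in oleic acid-fed (400 uM added) Drosophila S3 cells treated with a concentration series. 20 uM Triacsin C defined 100% inhibition.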

[1] = measured here: lipid fluorescence (Fed channel) AC50, cells fed with added oleic acid
[2] = measured here: cell number channel AC50, cells fed with added oleic acid

| Compound | cell number change [%] | AC50 [1] | AC50 [2] |
| --- | --- | --- | --- |
| Cc1ccc(C(C(=O)NC2CCCCC2)N(C(=O)Cc2c[nH]c3ccccc23)c2ccccc2C)o1 (centres undefined) | -8.8 | 6.51 µM [falling, partial curve] | – |
| Cc1nc(N)ncc1-c1ccc2c(c1)OCO2 | 28.2 | 5.17 µM [rising, full curve] | – |
| O=c1cc(CN2CCN(Cc3ccccc3)CC2)c2ccc(O)c(O)c2o1 | – | 29.1 µM [falling, single point] | – |
| COc1ccc(OC)c(N(CC(=O)NCc2cccnc2)S(C)(=O)=O)c1 | 7.54 | 9.2 µM [rising, partial curve, poor fit] | – |
| COc1ccc(N(CCC(=O)O)S(=O)(=O)c2ccc(C)c(C)c2)cc1 | -61.5 | 5.8 µM [falling, full curve] | 6.51 µM [falling, full curve] |
| Cc1cc(Cl)c(OCCCSc2nc(C)cc(=O)[nH]2)c(Br)c1 | -33.2 | 1.46 µM [falling, partial curve, poor fit] | 25.9 µM [falling, single point] |
| COc1cc(C(=O)OCc2ccc(C)cc2)cc(NC(=O)c2cccs2)c1OC | – | 29.1 µM [falling, partial curve, poor fit] | 0.651 µM [rising, single point] |
| O=C(NC1=NCCS1)c1ccc(-c2ccc(Cl)cc2)o1 | – | 6.51 µM [rising, single point] | 2.31 µM [rising, partial curve] |
| NC1=NC2(CCCC2)n2c(nc3ccccc32)N1 | -31.9 | 25.9 µM [falling, partial curve, poor fit] | 18.4 µM [falling, single point] |
| Cc1cc(NC(=O)C(C)SCC(=O)N(C)CC(=O)Nc2ccccc2Br)no1 (centres undefined) | – | 29.1 µM [rising, single point] | – |
| COc1cccc(CNC(=O)CCCC(=O)Nc2cccc([N+](=O)[O-])c2)c1 | 6.59 | 29.1 µM [falling, single point] | – |
| O=C(N/N=C/c1ccc(Cl)cc1)Nc1ccccc1 | -49.1 | 29.1 µM [falling, single point] | 23.1 µM [falling, single point] |
| Cc1cc(C(=O)CSc2ccccc2)cc(C)c1O | 12.1 | 29.1 µM [rising, single point] | – |
| CCSc1nnc(NC(=O)C2CC2c2ccccc2)s1 (centres undefined) | -56.1 | 16.4 µM [falling, single point] | 29.1 µM [falling, single point] |
| Cc1c(Cl)cccc1NC(=O)c1ccc(-n2ccnc2)nc1 | – | – | 6.51 µM [rising, single point] |
| COc1cc(OC)cc(OC(=O)C2CCN(C3=NS(=O)(=O)c4ccccc43)CC2)c1 | -50.6 | 20.6 µM [falling, single point] | 29.1 µM [falling, single point] |
| COc1cc(OC)cc(C(=O)NNC(=O)c2cc3c(s2)CCCC3)c1 | -3.33 | 0.0058 µM [falling, full curve, poor fit] | – |
| C=CS(=O)(=O)c1sc(Cl)c(N2CCOCC2)c1[N+](=O)[O-] | -64.8 | 13 µM [falling, partial curve] | 11.6 µM [falling, partial curve] |
| CSc1ccc(S(=O)(=O)Nc2ccc(N3CCOCC3)c(Cl)c2)cc1 | -7.34 | 7.31 µM [rising, partial curve] | – |
| COc1ccc(NC(=O)Cc2c(C(=O)O)n(C)c3ccccc23)cc1OC | 18.8 | 0.0291 µM [rising, full curve, poor fit] | 0.00731 µM [rising, full curve, poor fit] |
| O=C1ON=C(c2ccccc2[N+](=O)[O-])/C1=C/c1cccc([N+](=O)[O-])c1O | 17.5 | 5.8 µM [rising, single point] | – |
| Cc1cc(N2CCCC2)c(F)cc1/C=C\[N+](=O)[O-] | -48.5 | 4.11 µM [falling, partial curve] | 5.8 µM [falling, partial curve] |
| Cc1[nH]c(=S)c(C#N)c(-c2ccccc2)c1C(=O)Nc1ccccc1 | – | 32.6 µM [falling, partial curve] | – |
| O=C(CN1CCCCCCC1)Nc1ccc(Cl)cc1Cl | – | – | 1.84 µM [rising, single point] |
| Cc1noc(NS(=O)(=O)c2ccc(N/C=C/C(=O)c3ccccc3)cc2)c1C | 26.1 | 6.51 µM [rising, single point] | – |
| CN1CCN(C(=O)c2cnn(-c3ccccc3)c2NC(=O)c2ccccc2Br)CC1 | -5.41 | – | – |
| O=S(=O)(c1ccc(F)cc1)N1CCN(c2ncnc3c2cnn3-c2ccccc2)CC1 | 23.7 | 0.517 µM [rising, full curve] | 0.651 µM [rising, full curve, poor fit] |
| COc1ccc(CN(Cc2cccn2C)S(=O)(=O)c2cccc(C(F)(F)F)c2)cc1 | 39.1 | 5.8 µM [rising, full curve] | 0.651 µM [rising, full curve, poor fit] |

Filtered by structure, the entries above with a COOH group (2)

| Compound | cell number change [%] | AC50 [1] | AC50 [2] |
| --- | --- | --- | --- |
| COc1ccc(N(CCC(=O)O)S(=O)(=O)c2ccc(C)c(C)c2)cc1 | -61.5 | 5.8 µM [falling, full curve] | 6.51 µM [falling, full curve] |
| COc1ccc(NC(=O)Cc2c(C(=O)O)n(C)c3ccccc23)cc1OC | 18.8 | 0.0291 µM [rising, full curve, poor fit] | 0.00731 µM [rising, full curve, poor fit] |

Next part.

| Compound | cell number change [%] | AC50 [1] | AC50 [2] |
| --- | --- | --- | --- |
| O=C(O)c1ccccc1NCc1ccncc1 | 13 | 23.1 µM [falling, single point] | – |
| CC(C)Cc1n[nH]c(=O)[nH]1 | 0.668 | 16.4 µM [falling, partial curve] | – |
| Nc1ccc(C(=O)OCCc2ccccc2)cc1 | -39.6 | – | 6.51 µM [falling, partial curve] |
| CC(C)(C)NC(=O)c1cccc(NC(=O)c2ccc3c(c2)C(=O)N(C(C)(C)C)C3=O)c1 | -4.85 | – | – |
| CCOc1ccc(CCNC(=O)COC(=O)c2cccnc2Cl)cc1OCC | 69.4 | 14.6 µM [falling, partial curve, poor fit] | 29.1 µM [rising, single point] |
| O=C1/C(=C/c2ccccc2)NC(=S)N1C(c1ccccc1)c1ccccc1 | 55.8 | – | 29.1 µM [rising, single point] |
| COc1cc(-c2nc(-c3cccnc3)no2)cc(OC)c1OC | – | 0.206 µM [rising, full curve] | – |
| Cc1ccccc1C(=O)Nc1nnc(-c2ccc(F)cc2)o1 | -35.3 | 18.4 µM [falling, partial curve] | 0.0058 µM [falling, full curve, poor fit] |
| Cc1ccccc1OCCCC(=O)Nc1ccc2c(c1)OCO2 | – | – | 0.092 µM [falling, full curve, poor fit] |
| CC(=O)Nc1ccc(Sc2ccccc2C(=O)O)cc1 | -41.8 | – | – |
| CC(C)Cn1c(N)c(C=O)c(=O)n(C)c1=O | – | 29.1 µM [rising, single point] | – |
| CC(C)(C)OC(=O)N[C@@H](C(=O)OC(C)(C)C)c1ccc(C(F)(F)F)cc1 | 13.4 | – | – |
| Cc1ccccc1Cn1cc(NC(=O)c2cc(-c3ccco3)on2)cn1 | -26.1 | 18.4 µM [falling, single point] | – |
| COc1ccc(Nc2nc(Cl)c(C=O)s2)cc1 | 23.6 | 0.00461 µM [rising, full curve, poor fit] | – |
| COc1ccccc1-c1nc(-c2ccc(Br)cc2)no1 | -7.58 | 0.146 µM [rising, full curve, poor fit] | – |
| COc1ccc(S(=O)(=O)N(CC(=O)NCC2CCCO2)Cc2ccccc2)cc1C (centres undefined) | -21.3 | 1.46 µM [rising, full curve] | – |
| C[C@H](NC(=O)c1ccccc1Cl)C(=O)OCc1cn2cc(Cl)ccc2n1 | – | 4.61 µM [rising, single point] | – |
| CC(=O)NCCc1ccc(S(=O)(=O)N2CCN(c3nc(-c4ccccc4)c(C)s3)CC2)cc1 | -3.54 | 16.4 µM [falling, single point] | – |
| Cc1nc(SCC(=O)c2ccc(F)cc2)c([N+](=O)[O-])[nH]1 | 2.99 | – | – |
| Cc1ccc(S(=O)(=O)N2CCOCC2)cc1NC(=O)CSc1nc2ccccc2c(=O)n1Cc1ccccc1 | -30.9 | 16.4 µM [falling, partial curve] | 8.2 µM [falling, partial curve] |
| Cc1csc2nc(O)c(C(=O)NCc3ccc4c(c3)OCO4)c(=O)n12 | 77.9 | – | 20.6 µM [rising, partial curve, poor fit] |
| COc1ccc(NC(=O)CN(C)C(=O)C2=NN(c3ccccc3)C(=O)CC2)cc1 | 2.07 | 4.11 µM [rising, partial curve, poor fit] | 6.51 µM [falling, single point] |
| CCN1C(=O)C2(C(C(=O)c3cc4ccccc4o3)=C(O)C(=O)N2CCCN2CCOCC2)c2ccccc21 (centres undefined) | -14.7 | 3.26 µM [falling, full curve, poor fit] | – |
| COc1c(C(=O)Nc2ccc3[nH]c(=O)[nH]c3c2)cc2ccccc2c1Br | -45.9 | 23.1 µM [falling, partial curve] | 29.1 µM [falling, single point] |
| O=C(CCCn1cc([N+](=O)[O-])cn1)NCc1ccccc1 | 2.1 | 2.59 µM [rising, partial curve] | 6.51 µM [rising, single point] |
| Cc1ccccc1NC(=S)NCc1ccc2[nH]c3c(c2c1)CCCC3 | -59.9 | 10.3 µM [falling, partial curve] | 10.3 µM [falling, partial curve] |
| CN(C)S(=O)(=O)c1ccc(Cl)c(NC(=O)CN2C(=O)NC3(CCc4ccccc43)C2=O)c1 (centres undefined) | -0.124 | 0.058 µM [rising, full curve, poor fit] | – |

— PubChem BioAssay AID2685 (National Center for Advancing Translational Sciences (NCATS), 2010)
